Data from PubChem BioAssay AID2685 (National Center for Advancing Translational Sciences (NCATS), 2010).
The other results are listed elsewhere or left out. Shown are side measurements of this screen, not its main read-out; they come without a call. The list favours compounds with an active or inconclusive main result. Potencies come from curve fits of mixed quality, noted in brackets.

Experiment: qHTS Assay for Lipid Storage Modulators in Drosophila S3 Cells;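 as to cell number change: cells counted by Cell Tracker Red CMTPX staining in the red channel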
Conditions: BODIPY lipid droplet fluorescence, 18-24 h; for cell number change: measured here: cell count max response, cells fed with added oleic acid
Method in brief: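 Drosophila S3 cells got compounds at several concentrations plus oleic acid (400 uM solution). Laser-scanning cytometry with 488 nm excitation read lipid droplets at 500-530 nm and cells at 575-640 nm. Percent activity was relative to 20 uM Triacsin C.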

[1] = measured here: lipid fluorescence (Fed channel) AC50, cells fed with added oleic acid
[2] = measured here: cell number channel AC50, cells fed with added oleic acid

Row | SMILES | cell number change [%] | AC50 [1] | AC50 [2]
1 | CCOc1ccccc1N1CCN(CC(=O)NC(=O)NCc2ccco2)CC1 | -8.55 | 0.82 µM [falling, full curve, poor fit] | 
2 | COc1ccccc1C(=O)COC(=O)Cc1c[nH]c2ccccc12 |  | 3.66 µM [falling, single point] | 3.26 µM [rising, single point]
3 | COc1ccc2c(c1)c1nnc(SCC(=O)N3C(C)CCCC3C)nc1n2C (stereo unspecified) | -67.3 | 1.3 µM [falling, full curve] | 2.91 µM [falling, full curve]
4 | Cc1ccc(N=C(NOC(=O)c2ccccc2)c2nonc2N)c(C)c1 | -11.5 | 0.0651 µM [falling, full curve, poor fit] | 
5 | Cc1ccc2nc(N3CC(C)OC(C)C3)nc(-c3ccccc3)c2c1 (stereo unspecified) | 12.8 | 20.6 µM [rising, single point] | 
6 | CCOC(=O)C(=NC1CCS(=O)(=O)C1)NNc1ccc(Br)cc1 (stereo unspecified) |  | 29.1 µM [rising, single point] | 
7 | O=C(O)c1ccc(NS(=O)(=O)c2cccc(S(=O)(=O)c3ccc(Cl)c(Cl)c3)c2)cc1 | 8.26 |  | 
8 | O=C(C[n+]1cc(-c2ccc(Cl)cc2)n2c1CCC2)Nc1nc(-c2ccccc2)cs1 | 12.2 | 0.184 µM [rising, full curve, poor fit] | 
9 | C=CCN=C1NN=C(c2cc(C)n(CC=C)c2C)CS1 | 28.9 |  | 
10 | CC1=C(C(=O)OC(C)C)C(c2ccc(F)cc2)NC(=O)N1 (stereo unspecified) | -45.5 | 11.6 µM [falling, partial curve] | 13 µM [falling, partial curve]
11 | COc1ccc(Nc2ccc([N+](=O)[O-])cn2)cn1 |  | 10.3 µM [falling, partial curve, poor fit] | 
12 | COCCN(C(=O)C1CCC1)c1nnc(-c2cccnc2)s1 | -11.7 | 6.51 µM [rising, full curve] | 
13 | Cc1c(C)[n+](=O)c2c(n1[O-])C(Br)CCC2Br (stereo unspecified) | 28.9 | 29.1 µM [rising, single point] | 
14 | COc1ccccc1OCCNC(=O)c1cc(F)c(F)cc1Cl | -1.99 | 11.6 µM [rising, partial curve] | 
15 | Cn1cccc1C(=O)NC(=O)CSc1cccc[n+]1[O-] | -4.96 |  | 
16 | Cn1c(=N)n(CC(=O)c2ccc(Cl)c(Cl)c2)c2ccccc21 | 40.5 |  | 14.6 µM [rising, partial curve, poor fit]
17 | COc1ccc(C(=O)NCC(=O)NCC(=O)OCC(=O)c2ccc(C)cc2)cc1 |  | 2.91 µM [rising, single point] | 
18 | Cc1nc(C(=O)NC2CC2)sc1C1(C)CC(c2ccccc2)=NO1 (stereo unspecified) | -0.349 |  | 
19 | Cc1nc2c(cc1C(=O)N/N=C/c1ccc(O)c(O)c1)c(=O)n(C)c(=O)n2C | 13.5 | 0.0164 µM [rising, full curve, poor fit] | 2.91 µM [rising, partial curve]
20 | CN(C(=O)COC(=O)c1cc(S(=O)(=O)N2CCOCC2)c(Cl)cc1Cl)C1CCS(=O)(=O)C1 (stereo unspecified) | -38.7 | 6.51 µM [falling, single point] | 6.51 µM [falling, single point]
21 | CC(=O)Nc1ccc(NC(=O)COc2ccc([N+](=O)[O-])cc2)cc1 | -14 |  | 6.51 µM [falling, partial curve, poor fit]

Row | SMILES | cell number change [%] | AC50 [1] | AC50 [2]
22 | CCC(C)[C@H](NC(=O)[C@@H]1Cc2ccccc2CN1)C(=O)Nc1ccc2c(c1)OCO2 (stereo partly specified) | 1.14 | 29.1 µM [rising, single point] | 
23 | C=CCn1c(COc2cccc3ccc(C)nc23)nnc1SCC(N)=O | 128 |  | 20.6 µM [rising, partial curve]
24 | CCCCCCCCCCOC(=O)Cn1c(COc2ccc(Cl)cc2)[n+](C)c2ccccc21 | -76.3 | 13 µM [falling, partial curve] | 9.2 µM [falling, partial curve]
25 | CC(NC(=O)CCCCCNC(=O)N1CCn2c1nc1ccccc12)c1ccccc1 (stereo unspecified) | -25.4 | 16.4 µM [falling, single point] | 
26 | CC(C)c1[nH]nc2c1C(c1cccnc1)C(C#N)=C(N)O2 (stereo unspecified) | -4.42 |  | 
27 | N#CCCn1cc(C(=O)N2CCCCC2)c(-c2ccc([N+](=O)[O-])cc2)n1 | 76 | 0.092 µM [falling, full curve, poor fit] | 
28 | Cc1ccc(C(=O)NCC(=O)NCC(=O)OCC(=O)c2ccc(F)cc2)cc1 | 7.57 | 1.03 µM [rising, full curve, poor fit] | 
29 | O=C(c1ccc2nc(Cc3cccc(Cl)c3)oc2c1)N1CCC(CO)CC1 | 5.81 | 0.00651 µM [falling, full curve, poor fit] | 
30 | O=C(NCCCN1CCOCC1)c1ccc(CS(=O)(=O)Cc2ccc(Cl)cc2)o1 | -135 | 16.4 µM [falling, partial curve] | 25.9 µM [falling, partial curve]
31 | COc1cc(C(=O)NCCC(c2ccccc2)c2ccccc2)cc(OC)c1OC | 7.77 | 29.1 µM [falling, single point] | 
32 | CCOc1ccc(C(=O)N2CCN(CC(=O)N3CCCC3)CC2)cc1OCC | -19.4 |  | 
33 | Cc1ccc(CCN2CC(C(=O)NCCCN3CCOCC3)CC2=O)cc1 (stereo unspecified) | -27.5 | 16.4 µM [falling, partial curve] | 
34 | CCCCN1C(=O)NC(NS(=O)(=O)c2ccc(N)cc2)(C(F)(F)F)C1=O (stereo unspecified) | -40.5 | 6.51 µM [falling, single point] | 29.1 µM [falling, single point]
35 | CC(C)(C)C(=O)NC(=S)NNC(=O)c1ccncc1 | 0.709 |  | 
36 | Cc1ccc(C)c(Nc2ccc3nonc3c2[N+](=O)[O-])c1 | -18 |  | 
37 | Nn1cnnc1N/N=C\c1ccc(-c2ccccc2[N+](=O)[O-])o1 | -18.3 | 0.13 µM [rising, full curve, poor fit] | 
38 | CCc1ccc2[nH]c(=O)c(CN(CCN(C)C)C(=O)Nc3ccccc3OC)cc2c1 | 11.4 |  | 0.0731 µM [falling, full curve, poor fit]
39 | COc1ccc(OC)c(CCNC(=O)C(C)n2nc(C)c3c(C)n(-c4ccccc4)nc3c2=O)c1 (stereo unspecified) | -4.72 |  | 2.91 µM [rising, partial curve]
40 | CCOC(=O)C(C)Sc1nnc(NC(=O)c2ccc3c(c2)OCO3)s1 (stereo unspecified) | 16.1 | 29.1 µM [rising, single point] | 
41 | CCN(C(=O)c1cccc(F)c1)c1ccccc1C | -3.13 |  | 
42 | Nc1ccccc1N1CCOCC1 | -54.6 | 3.66 µM [falling, full curve] | 3.66 µM [falling, full curve]

Full records, quoted from the list.
Cc1c(C)[n+](=O)c2c(n1[O-])C(Br)CCC2Br (stereo unspecified) is listed as cell number change [%]: 28.9; AC50 [1]: 29.1 µM [rising, single point]
CCc1ccc2[nH]c(=O)c(CN(CCN(C)C)C(=O)Nc3ccccc3OC)cc2c1 is listed as cell number change [%]: 11.4; AC50 [2]: 0.0731 µM [falling, full curve, poor fit]
CCOc1ccccc1N1CCN(CC(=O)NC(=O)NCc2ccco2)CC1 is listed as cell number change [%]: -8.55; AC50 [1]: 0.82 µM [falling, full curve, poor fit]

Next part

Row | SMILES | cell number change [%] | AC50 [1] | AC50 [2]
43 | COc1ccc(N2C(=O)C3C4C=CC(C4)C3C2=O)nn1 (stereo unspecified) | -24.7 |  | 
44 | CC(C)c1c(C(=O)N/N=C/c2ccc(OCc3ccc(F)cc3)cc2)nnn1-c1nonc1N | 13.7 | 29.1 µM [falling, single point] | 
45 | O=C(NC1CCN(Cc2ccccc2)CC1)C1CCN(S(=O)(=O)c2ccccc2)CC1 | 2.78 | 29.1 µM [falling, single point] | 
46 | Fc1cccc(Nc2ncnc3sc4c(c23)CCC4)c1 | 38.4 | 0.411 µM [rising, full curve, poor fit] | 0.58 µM [rising, full curve]
47 | Cc1nnc(SCc2nc3sc4c(c3c(=O)[nH]2)CCCC4)[nH]c1=O | 17.2 |  | 
48 | CCCCCCCc1nc2nc(C)c(Br)c(=O)n2[nH]1 | -11.7 |  | 
49 | COC(=O)CNC(=O)CNC(=O)c1nn(-c2ccc(OC)c(Cl)c2)c(=O)c2ccccc12 | 4.14 |  | 
50 | C=CCNCCOc1cccc(Br)c1 |  | 29.1 µM [falling, single point] | 0.326 µM [falling, partial curve, poor fit]
51 | CSc1nc2ccccc2cc1/C=C(\C#N)c1cccc(Cl)c1 | 164 | 23.1 µM [rising, partial curve] | 29.1 µM [rising, single point]
52 | Cc1ccccc1C(=O)NNC(=O)C1CCCN(c2ncccn2)C1 (stereo unspecified) | 10.9 |  | 
53 | CNC(=O)CSc1nc2cccnc2n1C1CCCCC1 | -2.62 | 1.03 µM [falling, single point] | 
54 | CCOc1ccccc1CN1CCC(O)CC1 | -52.4 | 0.731 µM [falling, full curve] | 0.731 µM [falling, full curve, poor fit]
55 | O=C(NCc1ccc(Cl)cc1)c1ccc(NC(=O)C2CCCO2)cc1 (stereo unspecified) |  | 0.58 µM [rising, partial curve, poor fit] | 
56 | CCOc1ccc(NC(=O)CN2CCN(CC(=O)Nc3cc(OC)cc(OC)c3)CC2)cc1 | 19.5 | 29.1 µM [rising, single point] | 
57 | CCOc1ccc(N2CC(C(=O)Nc3nnc(SCCOC)s3)CC2=O)cc1 (stereo unspecified) | -10.5 | 3.16 µM [falling, single point] | 
58 | Cc1ccc2cc(C#N)c(NCc3ccco3)nc2c1 | 19.7 |  | 
59 | Cc1cc(C)c(C)c(S(=O)(=O)N2CCC(C(=O)NNC(=O)c3ccccc3O)CC2)c1C | 132 |  | 29.1 µM [rising, single point]
60 | C[C@@H](CSc1ccc(Br)cc1)CN1CC[C@H](C(C)(C)C)CCC1=O | -59.8 | 3.66 µM [rising, partial curve, poor fit] | 29.1 µM [falling, single point]
61 | COc1ccccc1C(=O)Nc1sc(C(=O)N2CCCC2)c(C)c1C#N | -62.9 | 2.59 µM [falling, full curve, poor fit] | 4.61 µM [falling, full curve]
